In patent US20250041461A1, “[177LU] LUTETIUM-PSMA I&T COMPOSITION AND DOSIMETRY, KIT, METHOD OF MAKING, AND METHOD OF USING THEREOF” (Curium US LLC, priority 2023, published 2025):
Where “and” joins values, the source holds several entries; their conditions need not be identical. Equal entries are not always repeated. This continues a long series; more values of the same kind are listed elsewhere.

Assay: Plasma PK modelling (gamma counting, bi-exponential fit), cycles 1 and 3
Type: in vivo, human
Description: PK plasma samples were collected at pre-Infusion, 1 h, 4 h, 24 h, 48 h, and 168 h, and counted for radioactivity. Blood samples were first centrifuged to extract plasma, and then the radioactivity in plasma was counted in a gamma counter.
Whole blood samples were collected as detailed in the protocol Schedule of Events i.e. pre-injection, and then at 1 h, 4 h, 24 h, 48 h, and 168 h post-injection. The samples were first centrifuged to separate plasma, and the radioactivity in the plasma was then measured using a gamma counter. Plasma concentrations were subsequently fitted with a bi-exponential function to derive outcome parameters such as the half-life and clearance rate of the radiopharmaceutical in the plasma.
Gamma-counted plasma samples were quality controlled using the same ^177Lu reference standard by measuring 0.5 ml of the 100 mL in the saline bag. For each patient, triplicates were made and measured right before all plasma samples were counted. A long-lived isotope was also counted to ensure that the protocol was properly followed by each site. Similarly to the imaging standard, when the gamma counter efficiency factor differed by more than 10% compared to that at site set-up, an investigation was launched to determine the cause of this variation, and if it reflected a difference in data acquisition.
Plasma data was fitted with a bi-exponential curve.
Blood samples were obtained for 15 out of 16 patients at cycle 3. Patients 12-004 had blood taken only at the 24 h timepoint and, therefore, was not included in the plasma PK analysis. Consistent with Cycle 1, the time-course of plasma concentrations was similar among the patients. The ranges of PK parameters obtained at cycle 3 were similar to those from Cycle 1 data (Table 6). Cycle 3 PK plasma modeling results (n=15)

[1] = plasma, Cycle 1, individual patients

O=C([O-])CC[C@H](NC(=O)N[C@@H](CCCCNC(=O)CCCCCCC(=O)NCCCC[C@@H](NC(=O)[C@@H](Cc1ccccc1)NC(=O)[C@@H](Cc1ccc(O)c(I)c1)NC(=O)CC[C@H](C(=O)[O-])N1CCN(CC(=O)[O-])CCN(CC(=O)[O-])CCN(CC(=O)[O-])CC1)C(=O)[O-])C(=O)[O-])C(=O)[O-].[177Lu+3].[H+].[H+].[H+].[H+].[H+] [^177Lu-PSMA I&T, (3S,7S,26R,29R,32R,37R)-29-benzyl-32-(4-hydroxy-3-iodobenzyl)-5,13,20,28,31,34-hexaoxo-37-(4,7,10-tris(carboxymethyl)-1,4,7,10-tetraazacyclododecan-1-yl)-4,6,12,21,27,30,33-heptaazaheptatriacontane-1,3,7,26,37-pentacarboxylic acid; lutetium-177 (III)]
plasma half-life, outlier (cycle 1, patient 42-030): 113.96 h | clearance (cycle 1, plasma): 13.06 ± 16.50 L/h | Distribution Half-Life [1]: 1.30 h | Peak Concentration Value [1]: 0.01 fIA/L and 0.06 fIA/L (2×) and 0.02 fIA/L and 0.07 fIA/L (2×) | Peak Concentration Value (plasma, cycle 3, max (n=15)): 0.07 fIA/L | Peak Concentration Value (plasma, cycle 3, median (n=15)): 0.04 fIA/L | Peak Concentration Value (plasma, cycle 3, min (n=15)): 0.03 fIA/L
